Source: PMC4901042
These are yes or no findings as the source states them, for the method shown. Some entries that bind do so weakly or less than the wild type.

Chains of the proteins cited; added tags and fusions are not shown.
UniProt O64645: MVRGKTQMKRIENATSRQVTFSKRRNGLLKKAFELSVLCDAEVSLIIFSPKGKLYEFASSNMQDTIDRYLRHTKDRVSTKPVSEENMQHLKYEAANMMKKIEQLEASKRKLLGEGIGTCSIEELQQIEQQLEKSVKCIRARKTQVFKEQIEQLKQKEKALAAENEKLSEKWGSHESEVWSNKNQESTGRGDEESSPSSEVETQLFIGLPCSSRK

What was measured:
Experiment in all cases: two-hybrid; Matchmaker Two-Hybrid System (Clontech); pGBKT7 (BD) and pGADT7 (AD) fusions cotransformed in yeast; SD/-Trp/-Leu/-His/-Ade/X-α-gal (40 μg/ml) with 5 mM 3-AT; grade by the number of clones
[1] = target: …3 (SEP3) of Arabidopsis (Arabidopsis) (UniProt O22456)
[2] = target: SUPPRESSOR OF OVEREXPRESSION OF CONSTANS 1 (SOC1) of Arabidopsis (Arabidopsis) (UniProt O64645)
[3] = target: T1, AGAMOUS-LIKE 24 (AGL24) of Arabidopsis (Arabidopsis) (UniProt O82794)
T1 sequence: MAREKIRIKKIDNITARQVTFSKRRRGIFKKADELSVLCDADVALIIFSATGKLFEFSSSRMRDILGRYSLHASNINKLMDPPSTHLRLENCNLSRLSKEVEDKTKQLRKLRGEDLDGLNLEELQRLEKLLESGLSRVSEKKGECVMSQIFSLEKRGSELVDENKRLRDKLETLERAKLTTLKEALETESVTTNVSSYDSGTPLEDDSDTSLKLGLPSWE

| Substance | binding [1] | binding [2] | binding [3] |
| --- | --- | --- | --- |
| SHORT … PHASE (SVP) of Arabidopsis (from UniProt Q9FVC1-1 1-240) | binds | binds | – |
| SUPPRESSOR OF OVEREXPRESSION OF CONSTANS 1 (SOC1) of Arabidopsis (from UniProt O64645 1-214) | – | – | binds |
